From PubChem BioAssay AID1487 (National Center for Advancing Translational Sciences (NCATS), 2009)
The other results are listed elsewhere or left out. Shown are side measurements of this screen, not its main read-out; they come without a call. Compounds called inactive in the main read-out are mostly missing here. The note in brackets gives the kind of curve behind each potency; many fits are weak.

Assay: qHTS Assay for Modulators of Lamin A Splicing
Settings: HeLa LMNA splicing GFP/RFP minigene ratio, 48 h
How it was run: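 Read-out is the ratio of GFP to DsRed2 object intensity, acquired by 488 nm laser-scanning cytometry on HeLa lamin A-EGFP minigene reporter cells. Compound incubation 48 hrs at 37 °C in Opti-MEM with 2% FBS; DMSO 0.5% final.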

[1] = measured here: GFP splicing reporter channel
[2] = measured here: RFP viability control channel

SMILES | AC50 [1] | AC50 [2]
CCCCc1nc2c(c3c1C[C@H](C)OC3)CN(S(=O)(=O)c1ccc(Cl)c3nonc13)CC2 | 0.794 µM [falling, partial curve, poor fit] | 0.562 µM [falling, partial curve, poor fit]
COc1ccccc1/C=N/N1C(=O)C(CC(=O)Nc2ccc([N+](=O)[O-])cc2OC)SC1=Nc1cccc(C)c1C (stereo not given) | 0.00501 µM [falling, full curve, poor fit] | 0.00355 µM [falling, full curve, poor fit]
COc1cc(/C=C/C(=O)OCC(=O)NCc2ccco2)cc(OC)c1OC |  | 0.355 µM [rising, full curve, poor fit]
O=C1Nc2ccccc2CCC1Sc1nnc(-c2ccc(Cl)cc2)s1 (stereo not given) |  | 15.8 µM [rising, partial curve, poor fit]
O=C(CSc1nc(=O)[nH]c2c1CCCC2)NCc1ccc(F)cc1 | 1.41 µM [falling, partial curve] | 
Cc1oc(-c2cc3c(cc2Cl)OCO3)nc1CN1CCCC(C(=O)N2CCOCC2)C1 (stereo not given) | 0.0126 µM [falling, full curve, poor fit] | 
CSc1nc(N)nc(SCCS(=O)(=O)c2ccc(Cl)cc2)c1C#N |  | 35.5 µM [falling, single point]
O=c1c2cccnc2nc2n1CCCCC2 | 0.126 µM [rising, full curve] | 
CCOC(=O)c1ccc(NC(=S)N(CCN2CCCCCC2)Cc2ccco2)cc1 | 35.5 µM [falling, single point] | 
O=c1c2ccccc2cnn1-c1ccc(Cl)cc1 | 1.58 µM [rising, partial curve] | 11.2 µM [rising, partial curve]
C[C@@]12C[C@@H](O)[C@H]3[C@@H](CCC4=CC(=O)CC[C@]43C)[C@H]1CC[C@H]2C(=O)CO | 0.447 µM [falling, single point] | 0.447 µM [falling, partial curve]
CCN=C1S/C(=C\c2ccc(N3CCOCC3)cc2C)C(=O)N1CC |  | 31.6 µM [rising, single point]
COC(=O)c1ccc(NC(=O)c2ccccc2NS(=O)(=O)c2ccccc2)cc1 | 17.8 µM [falling, single point] | 35.5 µM [falling, single point]
CN(c1ccccc1)S(=O)(=O)c1cccc(NC(=O)CSc2ncc(C(F)(F)F)cc2Cl)c1 | 8.91 µM [rising, partial curve, poor fit] | 11.2 µM [rising, partial curve]

A different layout for some results above:
SMILES,AC50 [1],AC50 [2]
CCOC(=O)c1ccc(NC(=S)N(CCN2CCCCCC2)Cc2ccco2)cc1,"35.5 µM [falling, single point]",
O=c1c2ccccc2cnn1-c1ccc(Cl)cc1,"1.58 µM [rising, partial curve]","11.2 µM [rising, partial curve]"
C[C@@]12C[C@@H](O)[C@H]3[C@@H](CCC4=CC(=O)CC[C@]43C)[C@H]1CC[C@H]2C(=O)CO,"0.447 µM [falling, single point]","0.447 µM [falling, partial curve]"
CCN=C1S/C(=C\c2ccc(N3CCOCC3)cc2C)C(=O)N1CC,,"31.6 µM [rising, single point]"
